Record: PubChem BioAssay AID1259254 (NCATS, 2017)
Here is one part, drawn at random, of about 59,000 reagents tested. About 1,550 of all reagents (2.6%) were called active. 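G2 share is only a proxy for re-replication; each gene was hit by three separate siRNAs, and active genes were retested.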 Raw values are not corrected between plates. A number with no mark means an inactive call. The numbers tell different reagents against one gene apart. No sequences are given here. Not given: the amount of reagent.

Screen: 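Gene knock-downs that lead to re-replication, shown by excess G2 DNA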 (primary screen)
System: human HCT116 colorectal cancer cells
Knock-down reagent: single siRNA against human genes
Duration: 3 days
Measurement: 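Nuclei stained with Hoechst and imaged; cell-cycle phase assigned by DNA content; G2 share scaled per plate, non-targeting siRNA 0%, GMNN siRNA 100%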
Direction: G2 robust z-score and G2 cells, % of GMNN control: higher = more G2 cells, more excess DNA replication; raw share of cells in G2: higher = larger share of cells with G2 DNA content
Active means: 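An siRNA counts as active if its G2 robust z-score lies at least 5 MADs above the screen median; here such calls match roughly 38% of GMNN control or more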

target gene,siRNA no.,G2 robust z-score,"G2 cells, % of GMNN control",raw share of cells in G2 (%)
TFAP2E,1,-0.442,-0.142,3.04
TFAP2E,2,0.469,6.27,5.34
TFAP2E,3,0.622,7.35,6.1
DENND1B,1,-0.518,-0.678,3.36
DENND1B,2,-0.924,-3.53,2.78
DENND1B,3,-0.963,-3.81,1.93
DENND1B,4,0.497,6.46,5.92
DENND1B,5,-0.247,1.23,3.37
DENND1B,6,-0.459,-0.262,2.68
NAA35,1,3.47,27.4,14.2
NAA35,2,0.829,8.8,9.29
NAA35,3,-0.362,0.418,4.49

Look-ups from the list.
NAA35 #2, G2 cells, % of GMNN control → 8.8
Under “raw share of cells in G2 (%)”, DENND1B #1 is entered as 3.36
NAA35 #1, raw share of cells in G2 (%) = 14.2

Continued:
target gene,siRNA no.,G2 robust z-score,"G2 cells, % of GMNN control",raw share of cells in G2 (%)
SERPINI1,1,-0.729,-2.16,4.09
SERPINI1,2,1.11,10.8,7.54
SERPINI1,3,-0.914,-3.47,2.45
ACACB,1,0.0706,3.46,5.9
ACACB,2,-0.506,-0.591,4.86
ACACB,3,-0.97,-3.86,2.55
SUOX,1,2.43,20,11.4
SUOX,2,0.582,7.06,6.3
SUOX,3,0.807,8.65,8.59
ATP5MK,1,0.39,5.71,4.14
ATP5MK,2,-0.95,-3.72,2.87
ATP5MK,3,-0.647,-1.58,2.99
NUMBL,1,1.79,15.5,10.3
NUMBL,2,-1.37,-6.64,2.93
NUMBL,3,-0.141,1.98,5.43
RPA2,1,-0.776,-2.49,3.32
RPA2,2,-0.823,-2.83,3.6
RPA2,3,9.33 (active),68.6,28.6
